Experimental data reported in the supplement of paper PMC7666118.
Some of the results follow.

By UniProt entry, the sequences of proteins in these tests, tags left out. Where a name states a change or a piece, a line headed by the entry shows the natural chain unless it says otherwise.
UniProt P26440: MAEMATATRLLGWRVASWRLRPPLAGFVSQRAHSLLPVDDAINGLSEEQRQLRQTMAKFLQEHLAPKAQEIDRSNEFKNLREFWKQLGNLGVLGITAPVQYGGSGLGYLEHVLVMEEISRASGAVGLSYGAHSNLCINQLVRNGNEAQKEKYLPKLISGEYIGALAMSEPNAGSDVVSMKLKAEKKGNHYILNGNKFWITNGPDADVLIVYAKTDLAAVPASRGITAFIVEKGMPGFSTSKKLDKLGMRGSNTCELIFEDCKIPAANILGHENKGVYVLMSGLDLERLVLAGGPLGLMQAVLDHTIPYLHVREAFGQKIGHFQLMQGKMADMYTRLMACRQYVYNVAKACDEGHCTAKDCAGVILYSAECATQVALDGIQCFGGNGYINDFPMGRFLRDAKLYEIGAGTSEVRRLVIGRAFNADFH
UniProt Q8N6R0: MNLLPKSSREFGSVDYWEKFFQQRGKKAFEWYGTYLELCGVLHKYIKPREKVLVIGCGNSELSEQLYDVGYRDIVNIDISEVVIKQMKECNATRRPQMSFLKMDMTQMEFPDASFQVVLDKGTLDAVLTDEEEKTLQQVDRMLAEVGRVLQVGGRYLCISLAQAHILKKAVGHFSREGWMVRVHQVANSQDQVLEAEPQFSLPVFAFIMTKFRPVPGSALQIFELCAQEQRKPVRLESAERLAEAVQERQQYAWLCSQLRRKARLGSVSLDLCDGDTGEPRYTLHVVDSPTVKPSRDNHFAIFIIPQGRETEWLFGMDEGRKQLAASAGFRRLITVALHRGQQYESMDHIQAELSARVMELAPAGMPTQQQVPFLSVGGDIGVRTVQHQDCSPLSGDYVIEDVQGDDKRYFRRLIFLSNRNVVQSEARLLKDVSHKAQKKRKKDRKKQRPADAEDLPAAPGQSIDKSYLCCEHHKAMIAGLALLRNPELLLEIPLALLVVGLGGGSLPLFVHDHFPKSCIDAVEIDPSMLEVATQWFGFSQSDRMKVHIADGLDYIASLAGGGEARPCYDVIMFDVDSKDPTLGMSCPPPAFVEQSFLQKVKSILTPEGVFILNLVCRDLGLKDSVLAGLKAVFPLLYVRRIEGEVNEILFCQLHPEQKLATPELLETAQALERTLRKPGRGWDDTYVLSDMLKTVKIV
UniProt P52294, whole entry: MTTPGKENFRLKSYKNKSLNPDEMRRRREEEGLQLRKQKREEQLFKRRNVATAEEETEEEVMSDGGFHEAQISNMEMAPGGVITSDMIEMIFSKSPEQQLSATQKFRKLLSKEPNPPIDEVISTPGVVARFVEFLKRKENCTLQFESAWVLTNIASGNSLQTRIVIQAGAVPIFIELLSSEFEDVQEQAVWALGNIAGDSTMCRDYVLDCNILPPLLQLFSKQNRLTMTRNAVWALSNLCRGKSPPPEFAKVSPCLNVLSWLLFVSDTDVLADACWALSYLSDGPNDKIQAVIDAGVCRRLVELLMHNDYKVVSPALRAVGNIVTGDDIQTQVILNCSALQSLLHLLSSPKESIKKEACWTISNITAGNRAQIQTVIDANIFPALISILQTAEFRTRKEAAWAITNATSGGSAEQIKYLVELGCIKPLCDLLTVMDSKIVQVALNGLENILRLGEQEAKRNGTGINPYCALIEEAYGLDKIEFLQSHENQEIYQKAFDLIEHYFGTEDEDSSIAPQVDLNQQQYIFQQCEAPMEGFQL
UniProt P42858, whole entry: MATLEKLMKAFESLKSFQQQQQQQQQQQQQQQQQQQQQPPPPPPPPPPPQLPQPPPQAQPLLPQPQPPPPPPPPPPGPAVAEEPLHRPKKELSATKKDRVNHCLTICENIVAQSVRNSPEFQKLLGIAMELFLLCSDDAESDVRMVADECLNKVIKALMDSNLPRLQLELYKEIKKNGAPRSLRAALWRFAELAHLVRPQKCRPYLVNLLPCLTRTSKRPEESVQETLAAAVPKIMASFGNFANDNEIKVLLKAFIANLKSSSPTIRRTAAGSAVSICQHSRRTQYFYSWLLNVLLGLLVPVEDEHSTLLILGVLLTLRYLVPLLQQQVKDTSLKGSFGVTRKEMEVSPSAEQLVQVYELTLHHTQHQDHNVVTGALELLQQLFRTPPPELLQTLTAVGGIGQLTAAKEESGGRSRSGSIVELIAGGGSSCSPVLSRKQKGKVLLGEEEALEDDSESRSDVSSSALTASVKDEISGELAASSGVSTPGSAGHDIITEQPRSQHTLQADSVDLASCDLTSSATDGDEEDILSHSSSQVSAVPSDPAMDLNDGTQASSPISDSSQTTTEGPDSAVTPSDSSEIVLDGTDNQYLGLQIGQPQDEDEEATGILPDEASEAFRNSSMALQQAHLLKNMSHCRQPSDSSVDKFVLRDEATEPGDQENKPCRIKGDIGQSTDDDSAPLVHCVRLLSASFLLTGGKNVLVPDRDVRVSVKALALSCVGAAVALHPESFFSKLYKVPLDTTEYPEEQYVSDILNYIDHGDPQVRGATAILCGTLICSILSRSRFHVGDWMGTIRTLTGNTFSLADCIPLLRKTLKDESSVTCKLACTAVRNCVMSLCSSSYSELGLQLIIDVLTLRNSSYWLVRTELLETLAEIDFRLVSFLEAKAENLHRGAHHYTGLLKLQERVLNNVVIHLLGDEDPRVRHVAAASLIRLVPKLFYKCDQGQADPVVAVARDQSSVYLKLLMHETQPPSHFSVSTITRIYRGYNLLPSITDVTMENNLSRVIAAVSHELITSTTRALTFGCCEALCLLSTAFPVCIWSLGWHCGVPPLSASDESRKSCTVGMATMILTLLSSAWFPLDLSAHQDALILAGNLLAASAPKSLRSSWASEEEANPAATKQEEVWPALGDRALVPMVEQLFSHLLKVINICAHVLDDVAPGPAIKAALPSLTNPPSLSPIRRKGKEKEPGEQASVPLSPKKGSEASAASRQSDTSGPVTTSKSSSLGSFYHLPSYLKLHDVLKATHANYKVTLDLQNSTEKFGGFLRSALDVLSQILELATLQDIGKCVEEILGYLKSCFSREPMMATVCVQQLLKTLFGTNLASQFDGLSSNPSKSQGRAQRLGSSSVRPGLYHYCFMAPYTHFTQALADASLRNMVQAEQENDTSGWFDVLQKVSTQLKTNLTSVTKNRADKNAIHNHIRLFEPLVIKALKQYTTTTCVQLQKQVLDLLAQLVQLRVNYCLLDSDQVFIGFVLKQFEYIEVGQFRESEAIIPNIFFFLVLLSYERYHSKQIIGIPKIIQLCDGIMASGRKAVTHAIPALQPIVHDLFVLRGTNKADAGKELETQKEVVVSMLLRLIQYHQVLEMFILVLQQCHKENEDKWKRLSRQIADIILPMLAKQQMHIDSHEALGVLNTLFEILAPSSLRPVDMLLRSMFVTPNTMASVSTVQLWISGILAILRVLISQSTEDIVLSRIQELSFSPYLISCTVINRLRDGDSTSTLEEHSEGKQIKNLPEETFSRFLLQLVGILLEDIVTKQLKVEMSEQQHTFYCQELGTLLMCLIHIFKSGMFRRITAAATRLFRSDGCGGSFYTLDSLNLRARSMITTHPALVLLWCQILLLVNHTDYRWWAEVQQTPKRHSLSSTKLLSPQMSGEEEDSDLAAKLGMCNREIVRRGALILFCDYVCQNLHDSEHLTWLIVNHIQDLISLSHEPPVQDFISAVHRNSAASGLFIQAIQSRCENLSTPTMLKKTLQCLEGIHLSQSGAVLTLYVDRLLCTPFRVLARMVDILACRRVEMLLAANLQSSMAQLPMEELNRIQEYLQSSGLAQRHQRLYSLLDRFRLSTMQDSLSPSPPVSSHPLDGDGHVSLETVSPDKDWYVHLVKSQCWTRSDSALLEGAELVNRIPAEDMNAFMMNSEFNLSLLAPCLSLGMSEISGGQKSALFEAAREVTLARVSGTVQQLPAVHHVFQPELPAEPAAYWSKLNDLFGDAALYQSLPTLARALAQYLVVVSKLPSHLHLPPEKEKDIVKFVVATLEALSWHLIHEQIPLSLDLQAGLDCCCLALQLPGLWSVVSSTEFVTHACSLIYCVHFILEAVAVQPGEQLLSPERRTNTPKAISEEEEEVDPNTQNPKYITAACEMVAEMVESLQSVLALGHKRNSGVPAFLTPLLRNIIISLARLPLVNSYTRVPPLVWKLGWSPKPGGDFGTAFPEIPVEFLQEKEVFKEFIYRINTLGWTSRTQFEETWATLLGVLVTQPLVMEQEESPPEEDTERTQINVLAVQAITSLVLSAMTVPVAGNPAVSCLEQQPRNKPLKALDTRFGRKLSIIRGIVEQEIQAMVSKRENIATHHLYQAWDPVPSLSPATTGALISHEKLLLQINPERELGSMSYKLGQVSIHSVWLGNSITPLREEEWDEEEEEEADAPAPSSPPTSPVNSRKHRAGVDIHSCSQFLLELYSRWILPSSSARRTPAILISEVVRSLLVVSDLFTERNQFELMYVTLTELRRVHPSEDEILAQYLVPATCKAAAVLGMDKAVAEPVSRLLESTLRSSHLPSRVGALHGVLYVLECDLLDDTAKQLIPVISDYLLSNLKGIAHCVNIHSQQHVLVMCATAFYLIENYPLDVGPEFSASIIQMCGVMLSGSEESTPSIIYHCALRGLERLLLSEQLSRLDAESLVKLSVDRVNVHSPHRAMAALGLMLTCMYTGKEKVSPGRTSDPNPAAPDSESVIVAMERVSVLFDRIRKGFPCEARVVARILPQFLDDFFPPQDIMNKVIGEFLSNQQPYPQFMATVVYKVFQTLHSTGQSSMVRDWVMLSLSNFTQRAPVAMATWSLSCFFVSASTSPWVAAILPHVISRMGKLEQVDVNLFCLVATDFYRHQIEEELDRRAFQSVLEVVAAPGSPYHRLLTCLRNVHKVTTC
UniProt Q9BUP3: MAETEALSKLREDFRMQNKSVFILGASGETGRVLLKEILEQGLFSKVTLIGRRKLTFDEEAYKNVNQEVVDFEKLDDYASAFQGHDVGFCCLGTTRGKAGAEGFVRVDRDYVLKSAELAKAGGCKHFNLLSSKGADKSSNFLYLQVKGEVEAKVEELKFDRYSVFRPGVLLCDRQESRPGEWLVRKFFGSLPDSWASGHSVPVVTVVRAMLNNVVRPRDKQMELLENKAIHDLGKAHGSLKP
UniProt A4D1U4: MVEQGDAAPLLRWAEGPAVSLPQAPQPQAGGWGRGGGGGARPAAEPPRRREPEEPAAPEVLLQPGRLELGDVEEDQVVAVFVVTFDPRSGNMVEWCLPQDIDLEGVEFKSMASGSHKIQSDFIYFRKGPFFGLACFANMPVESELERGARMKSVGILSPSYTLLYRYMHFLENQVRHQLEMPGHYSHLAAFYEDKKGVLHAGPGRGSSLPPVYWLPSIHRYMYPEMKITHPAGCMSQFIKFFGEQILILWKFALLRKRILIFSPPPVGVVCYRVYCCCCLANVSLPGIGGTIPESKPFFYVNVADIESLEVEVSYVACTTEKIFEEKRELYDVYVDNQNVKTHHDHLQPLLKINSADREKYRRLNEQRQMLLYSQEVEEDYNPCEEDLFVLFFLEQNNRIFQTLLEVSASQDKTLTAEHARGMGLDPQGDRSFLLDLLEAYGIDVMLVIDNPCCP
UniProt Q05084: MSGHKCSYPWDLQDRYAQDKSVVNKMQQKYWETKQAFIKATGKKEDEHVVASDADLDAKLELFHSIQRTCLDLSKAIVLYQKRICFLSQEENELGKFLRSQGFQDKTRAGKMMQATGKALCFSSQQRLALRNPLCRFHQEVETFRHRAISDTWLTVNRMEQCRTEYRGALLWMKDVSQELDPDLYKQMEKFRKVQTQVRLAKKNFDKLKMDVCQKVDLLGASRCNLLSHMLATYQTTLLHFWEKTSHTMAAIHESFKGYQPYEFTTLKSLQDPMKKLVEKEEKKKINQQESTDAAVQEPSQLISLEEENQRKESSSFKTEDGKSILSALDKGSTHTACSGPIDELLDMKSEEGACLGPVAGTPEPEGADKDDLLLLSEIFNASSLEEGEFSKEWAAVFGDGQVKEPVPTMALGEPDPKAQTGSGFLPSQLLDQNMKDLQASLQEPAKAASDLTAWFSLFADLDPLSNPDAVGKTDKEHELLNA
UniProt Q96G21: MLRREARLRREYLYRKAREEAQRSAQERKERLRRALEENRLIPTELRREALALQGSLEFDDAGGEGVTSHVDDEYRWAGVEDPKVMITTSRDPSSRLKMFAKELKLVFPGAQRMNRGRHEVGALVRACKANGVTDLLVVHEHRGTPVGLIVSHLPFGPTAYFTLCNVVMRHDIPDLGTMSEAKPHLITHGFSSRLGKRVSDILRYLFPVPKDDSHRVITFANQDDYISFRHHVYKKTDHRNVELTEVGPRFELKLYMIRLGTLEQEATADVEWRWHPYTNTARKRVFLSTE
UniProt Q96S16: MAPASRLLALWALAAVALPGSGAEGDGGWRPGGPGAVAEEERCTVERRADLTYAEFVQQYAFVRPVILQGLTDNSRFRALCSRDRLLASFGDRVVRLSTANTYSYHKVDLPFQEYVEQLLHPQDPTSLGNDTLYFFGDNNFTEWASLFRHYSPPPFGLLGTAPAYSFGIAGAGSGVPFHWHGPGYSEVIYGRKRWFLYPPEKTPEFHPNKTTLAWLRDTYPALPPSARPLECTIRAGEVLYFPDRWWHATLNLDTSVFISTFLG

Compound: COc1ccc(Cn2ccc3cc(C)c(C(=O)NO)cc32)cc1
Assay: dose-dependent thermal stabilisation call (2D-TPP, DLPTP, 10% FDR) (binary (1 = stabilised)); higher = stabilised by the compound
Conditions: system: HL-60 intact cells; concentration range 0.04-10 µM
Method: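 2D thermal proteome profiling in intact HL-60 cells treated with BRD-3811 (0, 0.04, 0.29, 2, 10 uM) for 90 min at 37 C, then heated 3 min at one of 12 temperatures (42-63.9 C). Soluble protein was quantified by TMT10 MS. The value is the DLPTP call of the paper: dose-dependent thermal stabilisation over all temperatures at 10% FDR (F-test of a dose-response against a flat model); one experiment, one call per tested protein.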

| Target | dose-dependent thermal stabilisation call |
| --- | --- |
| JARID1B (UniProt Q9UGL1) | inactive: 0 |
| KCTD10 (UniProt Q9H3F6) | inactive: 0 |
| KLHL18 (UniProt O94889) | inactive: 0 |
| KIAA0494 (UniProt O75071) | inactive: 0 |
| IVD (UniProt P26440) | inactive: 0 |
| KIAA0101 (UniProt Q15004) | inactive: 0 |
| ILKAP (UniProt Q9H0C8) | inactive: 0 |
| KIAA0859 (UniProt Q8N6R0) | inactive: 0 |
| KIAA0368 (UniProt Q5VYK3) | inactive: 0 |
| HYOU1 (UniProt Q9Y4L1) | inactive: 0 |
| KIF15 (UniProt Q9NS87) | inactive: 0 |
| INTS1 (UniProt Q8N201) | inactive: 0 |
| KCNQ5 (UniProt Q9NR82) | inactive: 0 |
| IFI30 (UniProt P13284) | inactive: 0 |
| KLHL20 (UniProt Q9Y2M5) | inactive: 0 |
| KCTD12 (UniProt Q96CX2) | inactive: 0 |
| ITPRIP (UniProt Q8IWB1) | inactive: 0 |
| JMJD2B (UniProt O94953) | inactive: 0 |

Quoted at random: two records from the list, in no set order.

| Target | dose-dependent thermal stabilisation call |
| --- | --- |
| KIAA0101 (UniProt Q15004) | inactive: 0 |
| JMJD2B (UniProt O94953) | inactive: 0 |

Next records follow.

| Target | dose-dependent thermal stabilisation call |
| --- | --- |
| KBTBD4 (UniProt Q9NVX7) | inactive: 0 |
| KPNA1 (UniProt P52294) | inactive: 0 |
| HTT (UniProt P42858) | inactive: 0 |
| ITPR2 (UniProt Q14571) | inactive: 0 |
| HTATIP2 (UniProt Q9BUP3) | inactive: 0 |
| KPNA2 (UniProt P52292) | inactive: 0 |
| IK (UniProt Q13123) | inactive: 0 |
| IKZF2 (UniProt Q9UKS7) | inactive: 0 |
| KIF1B (UniProt O60333) | inactive: 0 |
| KIAA1147 (UniProt A4D1U4) | inactive: 0 |
| KATNB1 (UniProt Q9BVA0) | inactive: 0 |
| IL16 (UniProt Q14005) | inactive: 0 |
| ICA1 (UniProt Q05084) | inactive: 0 |
| IMP4 (UniProt Q96G21) | inactive: 0 |
| KEAP1 (UniProt Q14145) | inactive: 0 |
| JMJD8 (UniProt Q96S16) | inactive: 0 |
| KIAA0196 (UniProt Q12768) | inactive: 0 |
| ITFG1 (UniProt Q8TB96) | inactive: 0 |
